# Experimental data reported in PubChem BioAssay AID504327 (National Center for Advancing Translational Sciences (NCATS), 2011).
# Amino acid sequences for entries named in this document (tags omitted).
# UniProt Q92830, whole entry, looked up: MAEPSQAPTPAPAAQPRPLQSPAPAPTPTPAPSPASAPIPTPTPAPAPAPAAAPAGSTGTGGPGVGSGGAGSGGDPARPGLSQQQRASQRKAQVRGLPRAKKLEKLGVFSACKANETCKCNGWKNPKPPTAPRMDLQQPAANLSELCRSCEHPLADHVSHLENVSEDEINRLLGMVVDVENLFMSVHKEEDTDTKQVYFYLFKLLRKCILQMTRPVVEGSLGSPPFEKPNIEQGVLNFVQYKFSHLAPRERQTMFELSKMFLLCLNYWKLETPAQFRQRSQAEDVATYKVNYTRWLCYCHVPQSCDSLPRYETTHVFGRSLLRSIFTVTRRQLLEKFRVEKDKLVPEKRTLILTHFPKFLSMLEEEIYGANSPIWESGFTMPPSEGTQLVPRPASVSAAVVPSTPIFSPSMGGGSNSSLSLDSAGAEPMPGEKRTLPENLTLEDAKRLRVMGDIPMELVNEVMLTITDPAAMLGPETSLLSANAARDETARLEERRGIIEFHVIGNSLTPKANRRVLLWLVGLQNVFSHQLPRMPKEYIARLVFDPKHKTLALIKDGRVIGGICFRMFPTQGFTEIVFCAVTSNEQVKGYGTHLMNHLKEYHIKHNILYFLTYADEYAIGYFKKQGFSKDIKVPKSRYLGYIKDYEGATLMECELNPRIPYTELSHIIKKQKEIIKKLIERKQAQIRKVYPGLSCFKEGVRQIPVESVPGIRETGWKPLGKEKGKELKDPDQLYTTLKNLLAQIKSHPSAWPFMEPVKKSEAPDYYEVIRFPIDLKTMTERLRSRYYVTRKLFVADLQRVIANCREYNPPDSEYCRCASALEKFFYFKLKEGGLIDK
# In all, about 390,000 compounds went through this assay and about 820 (0.21%) were called active. The inconclusive results got no clear call from the source; some entries with a clear call stand among them for comparison. Calls come from the whole dose curve; as a rule, active = well fitted inhibition curve with a large enough effect; inconclusive = small, poorly fitted or top-dose-only effect, or another doubt; inactive = no such curve, though single readings can be large or run the other way. Potencies of inconclusive entries are doubtful fits and often do not repeat.
# Target: Histone acetyltransferase KAT2A (Homo sapiens) (UniProt Q92830)
# Assay: qHTS Assay for Inhibitors of GCN5L2
# Conditions: GCN5L2 HAT assay, ThioGlo1 CoA-SH fluorescence; series mostly up to 58.9 µM
# Summary of the method: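 Preincubate 20nM GCN5L2 with compound 15 min, RT → add 50uM ThioGlo1 + 75uM H3(1-25) + 70uM acetyl-CoA → read fluorescence 0 and 20 min. Primary qHTS; fluorescent artifacts likely.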
# Potency is the fitted concentration of half-maximal effect.
row,Structure (SMILES),Potency
1,Cc1cc2nc3c(=O)[nH]c(=O)nc-3n(CC(O)C(O)C(O)COP(=O)(O)O)c2cc1C (centres undefined),"inconclusive: 35.5 µM [inhibitor, single point]"
2,O=C(OCc1cccc(F)c1)c1ccc2c(=O)n3c(nc2c1)CCC3,"inconclusive: 39.8 µM [inhibitor, single point]"
3,Oc1ccc(-c2cc(-c3ccc(O)cc3)nc(-c3ccccc3)n2)cc1,"inconclusive: 0.708 µM [inhibitor, full curve, poor fit]"
4,COc1ccccc1NC(=O)C1=C(C)Nc2ncnn2C1c1ccccc1C (centres undefined),"inconclusive: 8.91 µM [inhibitor, full curve, poor fit]"
5,COc1cc(CC(=O)Nc2ccc3nc(C)sc3c2)cc(OC)c1OC,inactive
6,CC(C)Oc1cccc(C(=O)C2CCCN(C(=O)c3cncs3)C2)c1 (centres undefined),"inconclusive: 0.708 µM [inhibitor, single point]"
7,O=C1C(SCCO)=C(SCCO)C(=O)c2ccccc21,inactive
8,CC[n+]1c(/C=C/C=C/N(C(C)=O)c2ccccc2)sc2ccccc21,inactive
9,O=C(CCC(=O)N1CCN(c2ccccc2F)CC1)c1ccc(Cl)s1,inactive
10,Cc1cccnc1CCNC(=O)C1CCC(=O)N(Cc2cccc(F)c2)C1 (centres undefined),"inconclusive: 6.31 µM [inhibitor, single point]"
11,O=C(NCCCNc1ccc(C(F)(F)F)cc1[N+](=O)[O-])c1ccc(Cl)cc1,"inconclusive: 28.2 µM [inhibitor, single point]"
12,Cc1c(Cl)ccc2c(C(=O)NC(C)c3ccncc3)cc(-c3ccncc3)nc12 (centres undefined),inactive
13,Nc1ccc2nc(-c3cccs3)[nH]c2c1,"inconclusive: 31.6 µM [inhibitor, partial curve]"
14,CCc1cccc(CC)c1NC(=O)CN1CCN(S(=O)(=O)c2ccccc2)CC1,"inconclusive: 3.55 µM [inhibitor, full curve, poor fit]"
15,CCOc1ccc(NC(=O)CC2SC(=O)N(c3ccccc3)C2=O)cc1 (centres undefined),"inconclusive: 25.1 µM [inhibitor, single point]"
16,COC(=O)c1nn(-c2ccc3c(c2)CCN3C(C)=O)cc1O,"inconclusive: 22.4 µM [inhibitor, partial curve, poor fit]"
17,COc1ccccc1N1CCN(C(=O)c2ccc3c(c2)NC(=O)C(CSCc2ccccc2C)N3)CC1 (centres undefined),"inconclusive: 39.8 µM [inhibitor, single point]"
18,C=CCNC(=S)NNC(=O)c1cccn(Cc2ccc(Cl)cc2Cl)c1=O,"inconclusive: 0.708 µM [inhibitor, single point]"
19,CCCNC(=O)NC(=O)c1cnccc1C(F)(F)F,"inconclusive: 39.8 µM [inhibitor, single point]"
20,CCC(C(=O)N/N=C/c1cccnc1)c1ccccc1 (centres undefined),"inconclusive: 0.141 µM [inhibitor, full curve, poor fit]"
21,Cc1ccc2c(c1)C(N1CCN(C)CC1)=Nc1cccnc1N2,"inconclusive: 39.8 µM [inhibitor, single point]"
22,Cc1ccc(NC(=O)CCS(=O)(=O)c2ccc3c(c2)NC(=O)C(C)S3)nc1 (centres undefined),"inconclusive: 3.16 µM [inhibitor, partial curve, poor fit]"

# A draw from above in order of SMILES length, falling.
row,Structure (SMILES),Potency
11,O=C(NCCCNc1ccc(C(F)(F)F)cc1[N+](=O)[O-])c1ccc(Cl)cc1,"inconclusive: 28.2 µM [inhibitor, single point]"
18,C=CCNC(=S)NNC(=O)c1cccn(Cc2ccc(Cl)cc2Cl)c1=O,"inconclusive: 0.708 µM [inhibitor, single point]"
21,Cc1ccc2c(c1)C(N1CCN(C)CC1)=Nc1cccnc1N2,"inconclusive: 39.8 µM [inhibitor, single point]"

# The results go on.

row,Structure (SMILES),Potency
1,C/C(CC(=O)Nc1cccc(Cl)c1Cl)=N\NC(=O)c1ccccc1C,inactive
2,Cc1cc(C)c2c(=O)n(CC(=O)NCCCN3CCN(c4ccccc4F)CC3)sc2n1,"inconclusive: 28.2 µM [inhibitor, partial curve]"
3,CC(C)(C)n1ncc2c(=O)n(CC(=O)c3ccc(Cl)cc3)cnc21,"inconclusive: 25.1 µM [inhibitor, single point]"
4,COc1cccc(Cn2c(=O)c(CCc3ccccc3)nc3cnc(N4CCOCC4)nc32)c1,inactive
5,CCC(C)c1ccc(S(=O)(=O)N2CCN(C(C)CC(=O)O)CC2)cc1 (centres undefined),inactive
6,CCOC(=O)c1ccc(N2C(=O)C=CC2=O)cc1,"inconclusive: 25.1 µM [inhibitor, single point]"
7,CN(CCOc1ccc(F)cc1)Cc1ccccc1,"inconclusive: 0.126 µM [inhibitor, full curve, poor fit]"
8,Cc1ccc(-n2c(C)n[nH]c2=S)cc1C,inactive
9,CCc1c(C)c2ccc(O)c(CN3CCCC3)c2oc1=O,"inconclusive: 22.4 µM [inhibitor, partial curve]"
10,O=C(COC(=O)CNS(=O)(=O)c1ccc2ccccc2c1)Nc1ccccc1Sc1ccccc1,inactive
11,COc1ccc(NC(=O)CN(C)C(=O)Cc2ccc3c(c2)CCC3)cc1,inactive
12,COc1ccccc1C1CC(c2cccs2)=NN1C(=O)CCC(=O)O (centres undefined),inactive
13,COc1cccc(NC(=O)CCC2CCN(C(=O)c3cccc(NC(C)=O)c3)CC2)c1,"inconclusive: 10 µM [inhibitor, partial curve]"
14,CC(NC(=O)c1cc(S(=O)(=O)N2CCOCC2)cn1C)c1ccccc1 (centres undefined),inactive
15,COc1ccc(/C(N)=N/OC(=O)c2ccc3c(c2)OCO3)cc1OC,"inconclusive: 5.01 µM [inhibitor, single point]"
16,O=S(=O)(NCc1ccc(F)cc1)c1ccccc1Br,"inconclusive: 25.1 µM [inhibitor, single point]"
17,Cc1ccc(C)c(N2CCN(C(=O)C34CC5CC(C3)CC(n3nnc(C)n3)(C5)C4)CC2)c1,"inconclusive: 3.16 µM [inhibitor, partial curve, poor fit]"
18,COc1cc(/C=C/C(=O)OCC(=O)N2CCc3ccccc3C2)ccc1O,inactive
19,CCOC(=O)C1=C(c2ccccc2)NC(SC)=C(C#N)C1c1ccco1 (centres undefined),inactive
20,Cc1ccc(C(=O)C2=C(O)C(=O)N(Cc3ccco3)C2c2ccc(N(C)C)cc2)o1 (centres undefined),"inconclusive: 8.91 µM [inhibitor, full curve, poor fit]"
21,O=C(CSc1ccc([N+](=O)[O-])cn1)Nc1cc(C(F)(F)F)ccc1N1CCOCC1,"inconclusive: 0.562 µM [inhibitor, full curve, poor fit]"
22,COCCNC(=O)CCc1nc(-c2ccccc2)no1,"inconclusive: 4.47 µM [inhibitor, single point]"
